Values from PubChem BioAssay AID1259308 (NCATS, 2017).

- Purpose: 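Knock-downs that increase output of a recombinant reporter protein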 (primary screen)
- Cell system: human HEK293 embryonic kidney cells stably expressing firefly luciferase (HEK-CMV-Luc2-Hygro)
- Reagents: single siRNA against human genes, 0.8 pmol siRNA per well
- Timing: 72 h
- Read-out: 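Reporter luminescence and viable-cell signal on separate replicate plates, given as percent of non-targeting control and median/MAD z-scores, plus per-cell luciferase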
- Scale: total luciferase, z-score and total luciferase, % of control: higher = more reporter protein produced; luciferase per cell, z-score: higher = more reporter output per viable cell
- Hit rule: 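Active when the median/MAD z-score for overall luciferase is greater than 3; a gene was taken forward for validation with new siRNAs if at least two of its three siRNAs passed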
- Calls: active = raised luciferase; inactive = no rise
This is one part, drawn at random, of about 59,000 reagents. About 1,510 of all reagents (2.6%) count as active. 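Calls use total luciferase alone and ignore viability, so some active siRNAs may act by altering cell number.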 Reagents against one gene are numbered here. Further read-outs or replicates are left out here.

gene knocked down | reagent no. | total luciferase, z-score | total luciferase, % of control | luciferase per cell, z-score | Outcome
RPL7AP66 (GeneID 388474) | 1 | -1.76 | 46.9 | 1.88 | inactive
RPL7AP66 (GeneID 388474) | 2 | -0.827 | 65.4 | -0.381 | inactive
RPL7AP66 (GeneID 388474) | 3 | -2.13 | 39.5 | -0.152 | inactive
ZCCHC14 (GeneID 23174) | 1 | -0.0606 | 80.7 | 0 | inactive
ZCCHC14 (GeneID 23174) | 2 | 0.326 | 88.4 | 0.204 | inactive
ZCCHC14 (GeneID 23174) | 3 | -0.873 | 64.5 | -1.68 | inactive
BABAM2 (GeneID 9577) | 1 | -0.511 | 71.7 | -0.469 | inactive
BABAM2 (GeneID 9577) | 2 | -0.605 | 69.9 | -0.157 | inactive
BABAM2 (GeneID 9577) | 3 | -0.127 | 79.4 | -0.103 | inactive
EFS (GeneID 10278) | 1 | -0.443 | 73.1 | 0.515 | inactive
EFS (GeneID 10278) | 2 | -0.473 | 72.5 | -0.586 | inactive
EFS (GeneID 10278) | 3 | -0.368 | 74.6 | -0.114 | inactive
C20orf144 (GeneID 128864) | 1 | -0.431 | 73.3 | 0.0139 | inactive
C20orf144 (GeneID 128864) | 2 | -1.62 | 49.7 | -2.36 | inactive
C20orf144 (GeneID 128864) | 3 | 6.41 | 209 | 4.37 | active
OLFM4 (GeneID 10562) | 1 | -0.615 | 69.7 | -0.692 | inactive
OLFM4 (GeneID 10562) | 2 | 2.86 | 139 | 1.92 | inactive
OLFM4 (GeneID 10562) | 3 | -0.873 | 64.5 | -1.08 | inactive
LRRN4CL (GeneID 221091) | 1 | 0.161 | 85.1 | -0.597 | inactive
LRRN4CL (GeneID 221091) | 2 | 2.34 | 128 | 2.67 | inactive
LRRN4CL (GeneID 221091) | 3 | -0.509 | 71.8 | -0.228 | inactive

Continued, starting with the last 6 of the part before.
gene knocked down | reagent no. | total luciferase, z-score | total luciferase, % of control | luciferase per cell, z-score | Outcome
OLFM4 (GeneID 10562) | 1 | -0.615 | 69.7 | -0.692 | inactive
OLFM4 (GeneID 10562) | 2 | 2.86 | 139 | 1.92 | inactive
OLFM4 (GeneID 10562) | 3 | -0.873 | 64.5 | -1.08 | inactive
LRRN4CL (GeneID 221091) | 1 | 0.161 | 85.1 | -0.597 | inactive
LRRN4CL (GeneID 221091) | 2 | 2.34 | 128 | 2.67 | inactive
LRRN4CL (GeneID 221091) | 3 | -0.509 | 71.8 | -0.228 | inactive
POFUT4 (GeneID 170384) | 1 | 0.575 | 93.3 | 0.538 | inactive
POFUT4 (GeneID 170384) | 2 | -0.625 | 69.4 | -0.901 | inactive
POFUT4 (GeneID 170384) | 3 | -1.08 | 60.4 | -1.6 | inactive
BBOX1 (GeneID 8424) | 1 | -0.658 | 68.8 | -0.586 | inactive
BBOX1 (GeneID 8424) | 2 | 0.813 | 98.1 | 1.04 | inactive
BBOX1 (GeneID 8424) | 3 | 0.564 | 93.1 | 0.569 | inactive
INTS9 (GeneID 55756) | 1 | 1.25 | 107 | 2.13 | inactive
INTS9 (GeneID 55756) | 2 | 0.142 | 84.7 | 0.826 | inactive
INTS9 (GeneID 55756) | 3 | 1.68 | 115 | 1.12 | inactive
ZNF155 (GeneID 7711) | 1 | -0.645 | 69.1 | -1.13 | inactive
ZNF155 (GeneID 7711) | 2 | 0.769 | 97.2 | 0.794 | inactive
ZNF155 (GeneID 7711) | 3 | 1.99 | 121 | 1.7 | inactive
PSMG3 (GeneID 84262) | 1 | -1.06 | 60.7 | -1.35 | inactive
PSMG3 (GeneID 84262) | 2 | -1.91 | 43.9 | -1.94 | inactive
PSMG3 (GeneID 84262) | 3 | 2.14 | 124 | 1.67 | inactive
OR52E2 (GeneID 119678) | 1 | 1.62 | 114 | 1.47 | inactive
OR52E2 (GeneID 119678) | 2 | 1.79 | 118 | 2.05 | inactive
OR52E2 (GeneID 119678) | 3 | -0.59 | 70.1 | -1.24 | inactive
RAB11B (GeneID 9230) | 1 | 0.25 | 86.9 | 0.491 | inactive
RAB11B (GeneID 9230) | 2 | 1.29 | 108 | 1.79 | inactive
RAB11B (GeneID 9230) | 3 | 2.14 | 124 | 1.62 | inactive
SLC17A3 (GeneID 10786) | 1 | -0.42 | 73.5 | -0.998 | inactive
SLC17A3 (GeneID 10786) | 2 | 0.389 | 89.6 | -0.213 | inactive
SLC17A3 (GeneID 10786) | 3 | -2.19 | 38.4 | 0.418 | inactive
NIPAL1 (GeneID 152519) | 1 | -2.7 | 28.2 | 0.457 | inactive
NIPAL1 (GeneID 152519) | 2 | 0.946 | 101 | 0.88 | inactive
NIPAL1 (GeneID 152519) | 3 | -2.09 | 40.3 | -2.53 | inactive
TAT (GeneID 6898) | 1 | -0.576 | 70.4 | -0.676 | inactive
TAT (GeneID 6898) | 2 | -0.162 | 78.7 | -0.723 | inactive
TAT (GeneID 6898) | 3 | 1.09 | 104 | 0.695 | inactive
WDR90 (GeneID 197335) | 1 | 0.842 | 98.6 | 0.182 | inactive
WDR90 (GeneID 197335) | 2 | 0.0698 | 83.3 | -0.416 | inactive
WDR90 (GeneID 197335) | 3 | 1.01 | 102 | 1.15 | inactive
WFDC9 (GeneID 259240) | 1 | -1.72 | 47.7 | -1.26 | inactive
WFDC9 (GeneID 259240) | 2 | -0.817 | 65.6 | -0.675 | inactive
WFDC9 (GeneID 259240) | 3 | 0.939 | 101 | -0.0218 | inactive
